Reference: the supplement of paper PMC8728848
The other results are listed elsewhere or left out.

Legend:
Test in all cases: glycan array binding signal (z-score within array); higher = stronger binding
Settings in all cases: glycan notation: IUPAC condensed, linker removed
[1] = biological target: GlcNAc(b1-2)[GlcNAc(b1-4)]Man(a1-3)[GlcNAc(b1-4)][GlcNAc(b1-2)[GlcNAc(b1-6)]Man(a1-6)]Man(b1-4)GlcNAc(b1-4)GlcNAc
In short: (§1)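 Glycan array binding is given as a within-array Z-score, which can be read as non-binding when negative. The arrays, 3228 of them, came from the Consortium for Functional Glycomics database and were retained only where the protein sequence was available. Z-scores were averaged across arrays of the same protein sequence at different concentrations or buffers and across linkers.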

[2] = biological target: GlcNAc(b1-2)[GlcNAc(b1-4)]Man(a1-3)[GlcNAc(b1-4)][GlcNAc(b1-2)[GlcNAc(b1-6)]Man(a1-6)]Man(b1-4)GlcNAc(b1-4)[Fuc(a1-6)]GlcNAc
In short: as §1

[3] = biological target: GlcNAc(b1-2)[GlcNAc(b1-6)]Man(a1-6)[GlcNAc(b1-2)Man(a1-3)]Man(b1-4)GlcNAc(b1-4)GlcNAc
In short: as §1

[4] = biological target: GlcNAc(b1-2)[GlcNAc(b1-6)]Man(a1-6)[GlcNAc(b1-2)Man(a1-3)]Man(b1-4)GlcNAc(b1-4)[Fuc(a1-6)]GlcNAc
In short: as §1

[5] = biological target: GlcNAc(b1-2)[GlcNAc(b1-6)]Man(a1-6)[GlcNAc(b1-4)][GlcNAc(b1-2)Man(a1-3)]Man(b1-4)GlcNAc(b1-4)GlcNAc
In short: as §1

GlcNAc(b1-3)Fuc = biological target: GlcNAc(b1-3)Fuc
In short: as §1

GlcNAc(b1-3)Gal = biological target: GlcNAc(b1-3)Gal
In short: as §1

[6] = biological target: GlcNAc(b1-3)Gal(b1-3)GalNAc
In short: as §1

GlcNAc(b1-3)Gal(b1-4)Glc = biological target: GlcNAc(b1-3)Gal(b1-4)Glc
In short: as §1

[7] = biological target: GlcNAc(b1-3)Gal(b1-4)GlcNAc
In short: as §1

[8] = biological target: GlcNAc(b1-3)Gal(b1-4)GlcNAc(b1-2)Man(a1-3)[GlcNAc(b1-3)Gal(b1-4)GlcNAc(b1-2)Man(a1-6)]Man(b1-4)GlcNAc(b1-4)GlcNAc
In short: as §1

[9] = biological target: GlcNAc(b1-3)Gal(b1-4)GlcNAc(b1-2)Man(a1-3)[GlcNAc(b1-3)Gal(b1-4)GlcNAc(b1-2)Man(a1-6)]Man(b1-4)GlcNAc(b1-4)[Fuc(a1-6)]GlcNAc
In short: as §1

[10] = biological target: GlcNAc(b1-3)Gal(b1-4)GlcNAc(b1-2)[GlcNAc(b1-3)Gal(b1-4)GlcNAc(b1-6)]Man(a1-6)[GlcNAc(b1-3)Gal(b1-4)GlcNAc(b1-2)Man(a1-3)]Man(b1-4)GlcNAc(b1-4)GlcNAc
In short: as §1

[11] = biological target: GlcNAc(b1-3)Gal(b1-4)GlcNAc(b1-3)Gal(b1-4)GlcNAc
In short: as §1

[12] = biological target: GlcNAc(b1-3)Gal(b1-4)GlcNAc(b1-3)Gal(b1-4)GlcNAc(b1-2)Man(a1-3)[GlcNAc(b1-3)Gal(b1-4)GlcNAc(b1-3)Gal(b1-4)GlcNAc(b1-2)Man(a1-6)]Man(b1-4)GlcNAc(b1-4)GlcNAc
In short: as §1

[13] = biological target: GlcNAc(b1-3)Gal(b1-4)GlcNAc(b1-3)Gal(b1-4)GlcNAc(b1-2)Man(a1-3)[GlcNAc(b1-3)Gal(b1-4)GlcNAc(b1-3)Gal(b1-4)GlcNAc(b1-2)Man(a1-6)]Man(b1-4)GlcNAc(b1-4)[Fuc(a1-6)]GlcNAc
In short: as §1

[14] = biological target: GlcNAc(b1-3)Gal(b1-4)GlcNAc(b1-3)Gal(b1-4)GlcNAc(b1-2)[GlcNAc(b1-3)Gal(b1-4)GlcNAc(b1-3)Gal(b1-4)GlcNAc(b1-6)]Man(a1-6)[GlcNAc(b1-3)Gal(b1-4)GlcNAc(b1-3)Gal(b1-4)GlcNAc(b1-2)Man(a1-3)]Man(b1-4)GlcNAc(b1-4)[Fuc(a1-6)]GlcNAc
In short: as §1

[15] = biological target: GlcNAc(b1-3)Gal(b1-4)GlcNAc(b1-3)Gal(b1-4)GlcNAc(b1-3)Gal(b1-4)GlcNAc(b1-2)Man(a1-3)[GlcNAc(b1-3)Gal(b1-4)GlcNAc(b1-3)Gal(b1-4)GlcNAc(b1-3)Gal(b1-4)GlcNAc(b1-2)Man(a1-6)]Man(b1-4)GlcNAc(b1-4)GlcNAc
In short: as §1

[16] = biological target: GlcNAc(b1-3)Gal(b1-4)GlcNAc(b1-3)Gal(b1-4)GlcNAc(b1-3)Gal(b1-4)GlcNAc(b1-2)Man(a1-3)[GlcNAc(b1-3)Gal(b1-4)GlcNAc(b1-3)Gal(b1-4)GlcNAc(b1-3)Gal(b1-4)GlcNAc(b1-2)Man(a1-6)]Man(b1-4)GlcNAc(b1-4)[Fuc(a1-6)]GlcNAc
In short: as §1

[17] = biological target: GlcNAc(b1-3)Gal(b1-4)GlcNAc(b1-3)Gal(b1-4)GlcNAc(b1-3)Gal(b1-4)GlcNAc(b1-2)[GlcNAc(b1-3)Gal(b1-4)GlcNAc(b1-3)Gal(b1-4)GlcNAc(b1-3)Gal(b1-4)GlcNAc(b1-6)]Man(a1-6)[GlcNAc(b1-3)Gal(b1-4)GlcNAc(b1-3)Gal(b1-4)GlcNAc(b1-3)Gal(b1-4)GlcNAc(b1-2)Man(a1-3)]Man(b1-4)GlcNAc(b1-4)[Fuc(a1-6)]GlcNAc
In short: as §1

[18] = biological target: GlcNAc(b1-3)Gal(b1-4)GlcNAc(b1-3)Gal(b1-4)GlcNAc(b1-3)Gal(b1-4)GlcNAc(b1-3)Gal(b1-4)GlcNAc(b1-2)Man(a1-3)[GlcNAc(b1-3)Gal(b1-4)GlcNAc(b1-3)Gal(b1-4)GlcNAc(b1-3)Gal(b1-4)GlcNAc(b1-3)Gal(b1-4)GlcNAc(b1-2)Man(a1-6)]Man(b1-4)GlcNAc(b1-4)GlcNAc
In short: as §1

[19] = biological target: GlcNAc(b1-3)Gal(b1-4)GlcNAc(b1-3)Gal(b1-4)GlcNAc(b1-3)Gal(b1-4)GlcNAc(b1-3)Gal(b1-4)GlcNAc(b1-2)Man(a1-3)[GlcNAc(b1-3)Gal(b1-4)GlcNAc(b1-3)Gal(b1-4)GlcNAc(b1-3)Gal(b1-4)GlcNAc(b1-3)Gal(b1-4)GlcNAc(b1-2)Man(a1-6)]Man(b1-4)GlcNAc(b1-4)[Fuc(a1-6)]GlcNAc
In short: as §1

[20] = biological target: GlcNAc(b1-3)Gal(b1-4)GlcNAc(b1-3)Gal(b1-4)GlcNAc(b1-3)Gal(b1-4)GlcNAc(b1-3)Gal(b1-4)GlcNAc(b1-2)[GlcNAc(b1-3)Gal(b1-4)GlcNAc(b1-3)Gal(b1-4)GlcNAc(b1-3)Gal(b1-4)GlcNAc(b1-3)Gal(b1-4)GlcNAc(b1-6)]Man(a1-6)[GlcNAc(b1-3)Gal(b1-4)GlcNAc(b1-3)Gal(b1-4)GlcNAc(b1-3)Gal(b1-4)GlcNAc(b1-3)Gal(b1-4)GlcNAc(b1-2)Man(a1-3)]Man(b1-4)GlcNAc(b1-4)[Fuc(a1-6)]GlcNAc
In short: as §1

B1: PX14375D-bvu-513-34-513 (Bacteroides vulgatus) (protein)
chain: TEDTFWKDETDFNLALTSCYTPLKNALNGGYYGTRGVMLRIARADEVDFRNDISDVYTVNRFTNSNTNSLTQGMFYQFYNALYRTNSIMQKLEEKKEQFSTDFQNSVKGECLFIRGFYLFQLAKEFKDAPLRLTASQSPSTFPLAKSSQADIWAQAKEDLKTAASLLPITNKIGKPTQGAAYAALGKIYVYEENWQEAINVLEPLTQNPYTYKLVEDFNWNFDDTHENNAESIFELLIEDVGGTDLWGDGENINSTQSNTRPKEYAAAEVGGWYEANPTQQIMDIFWKEKDKDGNFDYRARCSVAWDYEGCTYYQRPFREVFAQDKWKTYWILKYQNWKTQKDEPAPPKSFINERAIRYADVLLMLAEAYMNKGALDTSIGYINQIRRRANLNDYSGPITKEGVFEDLVHQRAIEFFVEGERFYDLRRWGLLEQTLKTCDDTRYKNYQTGKSDNINKFNYFPIPAKELDTNPLCTPSEGW
glycan array binding signal (z-score) [1]: -0.074 | glycan array binding signal (z-score) [2]: -0.453 | glycan array binding signal (z-score) [3]: 0.632 | glycan array binding signal (z-score) [4]: 0.135 | glycan array binding signal (z-score) [5]: 0.178 | glycan array binding signal (z-score) (GlcNAc(b1-3)Fuc): -0.96 | glycan array binding signal (z-score) (GlcNAc(b1-3)Gal): -0.36 | glycan array binding signal (z-score) [6]: 0.465 | glycan array binding signal (z-score) (GlcNAc(b1-3)Gal(b1-4)Glc): -0.384 | glycan array binding signal (z-score) [7]: -0.373 | glycan array binding signal (z-score) [8]: -0.381 | glycan array binding signal (z-score) [9]: 1.56 | glycan array binding signal (z-score) [10]: 0.185 | glycan array binding signal (z-score) [11]: 0.08 | glycan array binding signal (z-score) [12]: 0.722 | glycan array binding signal (z-score) [13]: 1.62 | glycan array binding signal (z-score) [14]: 0.276 | glycan array binding signal (z-score) [15]: -0.714 | glycan array binding signal (z-score) [16]: 0.902 | glycan array binding signal (z-score) [17]: 2.65 | glycan array binding signal (z-score) [18]: -0.04 | glycan array binding signal (z-score) [19]: 0.697 | glycan array binding signal (z-score) [20]: 0.771
